The source of these data is publication PMC4213368, “Elucidation of a protein-protein interaction network involved in Corynebacterium glutamicum cell wall biosynthesis as determined by bacterial two-hybrid analysis” (Glycoconjugate Journal, 2014).

No constants are given. Whether binding was seen depends on the method and setting. Some entries that bind do so weakly or less than the wild type.

Holding throughout (experiment): two-hybrid; bacterial adenylate cyclase two-hybrid (BACTH) in E. coli cya BTH101; T25 and T18 fusions at N- or C-terminus co-expressed; co-transformants spotted on LB/X-gal, MacConkey/maltose and M63 plates with 0.5 mM IPTG, colour read after 48 h at 30 °C; 577 pairs screened; results as summarised in Table 2
Assay [1] concerns the target T1, AftC (Corynebacterium glutamicum ATCC 13032) (UniProt Q8NPB7).
T1 sequence: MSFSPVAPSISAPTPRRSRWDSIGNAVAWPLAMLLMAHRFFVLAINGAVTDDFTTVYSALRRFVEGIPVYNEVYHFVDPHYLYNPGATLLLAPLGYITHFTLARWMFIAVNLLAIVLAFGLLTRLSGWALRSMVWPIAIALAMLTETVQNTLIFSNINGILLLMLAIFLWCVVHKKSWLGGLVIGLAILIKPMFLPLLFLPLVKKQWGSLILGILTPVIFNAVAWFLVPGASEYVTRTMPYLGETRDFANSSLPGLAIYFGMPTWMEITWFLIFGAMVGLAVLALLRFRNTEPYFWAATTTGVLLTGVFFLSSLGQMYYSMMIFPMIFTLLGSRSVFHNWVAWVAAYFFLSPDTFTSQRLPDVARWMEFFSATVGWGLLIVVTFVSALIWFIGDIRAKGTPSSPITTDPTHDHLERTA

In assay [2] the target is T2, AftB (Corynebacterium glutamicum ATCC 13032) (UniProt Q8NLR0).
T2 sequence: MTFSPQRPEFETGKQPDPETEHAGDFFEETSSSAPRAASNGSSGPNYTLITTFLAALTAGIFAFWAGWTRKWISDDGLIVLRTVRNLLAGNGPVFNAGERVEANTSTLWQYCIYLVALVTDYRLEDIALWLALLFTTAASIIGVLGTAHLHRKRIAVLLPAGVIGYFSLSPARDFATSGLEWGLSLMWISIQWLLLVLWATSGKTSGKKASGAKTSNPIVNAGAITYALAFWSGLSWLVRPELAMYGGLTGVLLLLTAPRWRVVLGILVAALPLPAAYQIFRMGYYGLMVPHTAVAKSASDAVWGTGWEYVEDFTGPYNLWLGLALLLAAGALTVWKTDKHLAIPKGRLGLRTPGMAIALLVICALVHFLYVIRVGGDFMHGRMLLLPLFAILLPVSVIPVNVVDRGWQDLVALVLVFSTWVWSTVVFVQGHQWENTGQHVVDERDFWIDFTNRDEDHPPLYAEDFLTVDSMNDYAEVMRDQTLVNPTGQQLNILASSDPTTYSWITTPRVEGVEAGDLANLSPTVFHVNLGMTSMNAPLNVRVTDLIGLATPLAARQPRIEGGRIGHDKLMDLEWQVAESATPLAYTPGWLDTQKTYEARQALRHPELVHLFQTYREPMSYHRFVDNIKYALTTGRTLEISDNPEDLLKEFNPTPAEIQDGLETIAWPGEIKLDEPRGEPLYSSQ

Assay [3] concerns the target AftA (Corynebacterium glutamicum ATCC 13032) (UniProt Q8NTW4).

B1: AftC (enzyme, Corynebacterium glutamicum ATCC 13032, UniProt Q8NPB7 1-418, looked up)
chain: T1 sequence
notes: AftC, arabinofuranosyltransferase, transmembrane, Corynebacterium glutamicum ATCC 13032; gene amplified from genomic DNA; One molecule for all four fusion forms; also called arabinofuranosyltransferase AftC; AftC-T25^C; source: E. coli BTH101, bacterial two-hybrid (BACTH) fusion; not shown: T25 or T18 fragment of Bordetella pertussis adenylate cyclase, N-terminal or C-terminal (each tested), kept
Regarding B1, the binding entry in assay [1] was “binds”.

B2: AftA (enzyme, Corynebacterium glutamicum ATCC 13032, UniProt Q8NTW4 1-661, looked up)
chain: MNPYGPSRVPEGEVYRPDRLNRKATLVAIVGAAILAFAFALVLWMGLKQTNLPAFGPSNVTRAVASATIAAVLIVTGFLTWLWLRDEHQSNPRWELEDVKPRPKWRTALTYLASYLSPAALVVAVLAIPLSATRLYLDGISVDQGFRTQFLTRMADDIGLSDMNYIDMPTFYPAGWFWLGGRLANLLGLPGWEAFQPWAIVSMAVAASVLVPVWQRITGSLPVATGIALVTTCIILAMNSEEPYAAIVAMGIPAMLVLASRIAKGDKFALAGGIIYLGVSATFYTLFTGAIALSAVAVCIVVAAIVQRSIKPLLWLAVLGGGSIVIALISWGPYLLASINGAERSGDSATHYLPLEGTQFPVPFLASSVVGLLCLVGLIYLVVRFHNNEVRAMWVGIAVFYAWMGMSMAITLLGNTLLGFRLDTVLVLIFATAGVLGIADFRLASVYQLYPTQITERTATHLTNLIVVLVLLGGLYYAQDLPQKNARAIDLAYTDTDGYGERADLYPAGAARYYKDINDHLLDQGFEPSETVVLTDELDFMSYYPYRGYQAFTSHYANPLGEFGNRNAFIEDLAIRSWDELADPQQFSDALNTSPWTIPEVFIFRGSIDDPDAGWKYDVAEDLYPNNPNVRFRGVYFNPESFDQMWQTKQVGPFVVVTHNE
notes: AftA, arabinofuranosyltransferase, transmembrane, Corynebacterium glutamicum ATCC 13032; gene amplified from genomic DNA; One molecule for all four fusion forms; also called arabinofuranosyltransferase AftA; AftA-T25^N; source: E. coli BTH101, bacterial two-hybrid (BACTH) fusion; not shown: T25 or T18 fragment of Bordetella pertussis adenylate cyclase, N-terminal or C-terminal (each tested), kept
For the molecule B2, the binding result in assay [2], in assay [1] and in assay [3] was “binds” in each case.

B3: AftB (enzyme, Corynebacterium glutamicum ATCC 13032, UniProt Q8NLR0 1-686, looked up)
chain: T2 sequence
notes: AftB, arabinofuranosyltransferase, transmembrane, Corynebacterium glutamicum ATCC 13032; gene amplified from genomic DNA; One molecule for all four fusion forms; also called arabinofuranosyltransferase AftB; AftB-T25^N; source: E. coli BTH101, bacterial two-hybrid (BACTH) fusion; not shown: T25 or T18 fragment of Bordetella pertussis adenylate cyclase, N-terminal or C-terminal (each tested), kept
B3: the binding entry in assay [2] and in assay [1] was “binds” in each case.
